Data published in PubChem BioAssay AID1610 (NINDS Approved Drug Screening Program, 2009).
In all, about 1,000 compounds went through this assay and about 70 (7%) were called active. The source calls these results inconclusive, neither active nor inactive. The rule behind the calls is not given here.

Assay: rescue of PC12 cells from polyQ htt toxicity – LDH release (AID 1610)
Settings: PC12 mutant huntingtin toxicity; at 100 µM (top of the series)

Question: Which normalised LDH release, lower = protection does the source give for `CN(CCCl)CCCl` here?
Answer: inconclusive: 0.043
